Data: the supplement of paper PMC10849652
The list shows a part of the results.

Sequences of proteins named here, by UniProt entry; tags and fusion partners are left off. A change or cut given only in a name is not applied to a line headed by its entry.
UniProt Q06587: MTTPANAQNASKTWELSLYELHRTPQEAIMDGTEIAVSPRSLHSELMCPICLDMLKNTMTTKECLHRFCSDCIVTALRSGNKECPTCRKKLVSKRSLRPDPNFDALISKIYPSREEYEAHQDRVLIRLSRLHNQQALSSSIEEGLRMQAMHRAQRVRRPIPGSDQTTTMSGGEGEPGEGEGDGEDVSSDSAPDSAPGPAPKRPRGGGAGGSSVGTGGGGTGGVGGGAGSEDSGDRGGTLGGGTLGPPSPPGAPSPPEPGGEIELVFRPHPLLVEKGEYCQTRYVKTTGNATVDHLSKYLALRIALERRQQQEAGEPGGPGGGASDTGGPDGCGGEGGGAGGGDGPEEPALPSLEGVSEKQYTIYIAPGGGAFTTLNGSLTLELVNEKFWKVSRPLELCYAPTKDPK
UniProt Q4ADV7: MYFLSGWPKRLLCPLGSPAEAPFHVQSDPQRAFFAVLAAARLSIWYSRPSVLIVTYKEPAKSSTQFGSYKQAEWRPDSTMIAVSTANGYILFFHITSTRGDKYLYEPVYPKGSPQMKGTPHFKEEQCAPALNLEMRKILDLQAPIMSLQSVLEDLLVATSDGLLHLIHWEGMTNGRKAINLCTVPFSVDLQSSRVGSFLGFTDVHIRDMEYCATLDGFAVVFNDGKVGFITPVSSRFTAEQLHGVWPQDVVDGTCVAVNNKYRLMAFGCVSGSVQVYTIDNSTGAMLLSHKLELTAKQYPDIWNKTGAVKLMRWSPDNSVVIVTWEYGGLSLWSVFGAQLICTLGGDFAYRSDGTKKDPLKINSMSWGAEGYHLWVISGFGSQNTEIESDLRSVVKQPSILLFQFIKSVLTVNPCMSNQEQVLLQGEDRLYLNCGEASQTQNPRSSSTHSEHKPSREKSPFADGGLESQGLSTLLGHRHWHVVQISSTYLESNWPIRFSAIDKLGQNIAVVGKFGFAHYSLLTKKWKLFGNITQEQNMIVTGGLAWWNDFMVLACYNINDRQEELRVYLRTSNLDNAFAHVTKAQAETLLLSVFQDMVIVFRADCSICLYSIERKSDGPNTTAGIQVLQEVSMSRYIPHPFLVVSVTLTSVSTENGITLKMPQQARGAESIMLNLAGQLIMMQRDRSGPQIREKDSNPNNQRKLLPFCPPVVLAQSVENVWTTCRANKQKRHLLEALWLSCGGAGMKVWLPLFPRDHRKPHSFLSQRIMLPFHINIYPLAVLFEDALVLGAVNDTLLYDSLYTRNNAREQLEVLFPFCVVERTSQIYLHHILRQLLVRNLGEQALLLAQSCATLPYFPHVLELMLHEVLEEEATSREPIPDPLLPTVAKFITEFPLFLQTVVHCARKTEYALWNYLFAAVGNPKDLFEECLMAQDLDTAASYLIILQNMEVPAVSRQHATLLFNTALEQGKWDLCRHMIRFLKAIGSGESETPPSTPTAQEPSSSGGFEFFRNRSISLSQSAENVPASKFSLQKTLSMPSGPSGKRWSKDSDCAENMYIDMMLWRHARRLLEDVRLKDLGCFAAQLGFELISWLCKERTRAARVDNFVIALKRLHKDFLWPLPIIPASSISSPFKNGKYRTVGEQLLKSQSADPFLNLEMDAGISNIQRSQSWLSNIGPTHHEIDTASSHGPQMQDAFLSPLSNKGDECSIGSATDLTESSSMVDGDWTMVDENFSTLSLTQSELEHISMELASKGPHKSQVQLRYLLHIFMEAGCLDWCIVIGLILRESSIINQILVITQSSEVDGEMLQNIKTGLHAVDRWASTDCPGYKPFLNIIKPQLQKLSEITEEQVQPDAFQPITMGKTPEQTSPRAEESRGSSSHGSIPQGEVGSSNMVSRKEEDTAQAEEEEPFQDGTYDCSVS
UniProt P62745, whole entry, looked up: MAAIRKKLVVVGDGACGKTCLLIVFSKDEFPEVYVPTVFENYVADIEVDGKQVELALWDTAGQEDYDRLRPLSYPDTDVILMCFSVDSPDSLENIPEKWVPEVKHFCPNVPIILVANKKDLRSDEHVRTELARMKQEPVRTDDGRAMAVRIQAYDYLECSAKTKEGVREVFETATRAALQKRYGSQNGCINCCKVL
UniProt O75792: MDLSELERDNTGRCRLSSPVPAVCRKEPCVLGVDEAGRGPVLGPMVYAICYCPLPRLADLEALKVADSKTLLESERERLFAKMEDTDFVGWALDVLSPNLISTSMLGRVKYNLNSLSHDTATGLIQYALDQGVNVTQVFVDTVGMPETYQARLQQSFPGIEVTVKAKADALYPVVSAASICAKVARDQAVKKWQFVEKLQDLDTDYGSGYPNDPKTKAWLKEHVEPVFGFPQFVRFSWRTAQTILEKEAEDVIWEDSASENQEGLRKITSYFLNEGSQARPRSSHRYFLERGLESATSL
UniProt O15541: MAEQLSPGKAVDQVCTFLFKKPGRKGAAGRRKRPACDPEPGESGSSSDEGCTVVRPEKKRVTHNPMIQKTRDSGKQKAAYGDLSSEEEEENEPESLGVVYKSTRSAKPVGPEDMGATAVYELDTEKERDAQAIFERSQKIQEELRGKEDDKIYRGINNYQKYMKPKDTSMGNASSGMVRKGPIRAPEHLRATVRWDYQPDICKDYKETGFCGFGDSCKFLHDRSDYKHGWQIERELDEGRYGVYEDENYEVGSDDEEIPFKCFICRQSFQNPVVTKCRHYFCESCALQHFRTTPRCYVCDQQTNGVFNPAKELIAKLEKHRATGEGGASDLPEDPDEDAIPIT
UniProt P34096: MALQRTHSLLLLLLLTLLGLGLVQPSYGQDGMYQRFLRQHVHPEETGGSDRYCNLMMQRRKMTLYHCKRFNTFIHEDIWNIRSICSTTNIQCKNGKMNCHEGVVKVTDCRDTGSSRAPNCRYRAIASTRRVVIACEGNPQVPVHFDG
UniProt Q9H6T3, whole entry, looked up: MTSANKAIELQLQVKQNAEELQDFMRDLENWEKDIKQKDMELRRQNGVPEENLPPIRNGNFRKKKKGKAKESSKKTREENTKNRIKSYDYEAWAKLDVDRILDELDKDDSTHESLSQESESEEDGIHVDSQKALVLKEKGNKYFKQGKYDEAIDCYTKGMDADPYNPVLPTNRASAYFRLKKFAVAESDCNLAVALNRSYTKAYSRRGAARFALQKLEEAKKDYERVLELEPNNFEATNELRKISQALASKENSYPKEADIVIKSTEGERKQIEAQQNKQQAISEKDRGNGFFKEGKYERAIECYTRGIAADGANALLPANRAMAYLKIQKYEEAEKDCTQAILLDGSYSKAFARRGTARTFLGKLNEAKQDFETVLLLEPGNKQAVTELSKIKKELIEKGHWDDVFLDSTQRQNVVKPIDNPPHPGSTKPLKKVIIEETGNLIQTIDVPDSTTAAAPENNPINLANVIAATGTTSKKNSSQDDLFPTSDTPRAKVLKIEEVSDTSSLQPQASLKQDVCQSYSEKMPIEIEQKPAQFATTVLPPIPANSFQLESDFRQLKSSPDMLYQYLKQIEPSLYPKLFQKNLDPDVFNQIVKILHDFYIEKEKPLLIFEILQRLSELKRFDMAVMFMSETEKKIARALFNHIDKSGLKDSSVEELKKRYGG
UniProt Q05823: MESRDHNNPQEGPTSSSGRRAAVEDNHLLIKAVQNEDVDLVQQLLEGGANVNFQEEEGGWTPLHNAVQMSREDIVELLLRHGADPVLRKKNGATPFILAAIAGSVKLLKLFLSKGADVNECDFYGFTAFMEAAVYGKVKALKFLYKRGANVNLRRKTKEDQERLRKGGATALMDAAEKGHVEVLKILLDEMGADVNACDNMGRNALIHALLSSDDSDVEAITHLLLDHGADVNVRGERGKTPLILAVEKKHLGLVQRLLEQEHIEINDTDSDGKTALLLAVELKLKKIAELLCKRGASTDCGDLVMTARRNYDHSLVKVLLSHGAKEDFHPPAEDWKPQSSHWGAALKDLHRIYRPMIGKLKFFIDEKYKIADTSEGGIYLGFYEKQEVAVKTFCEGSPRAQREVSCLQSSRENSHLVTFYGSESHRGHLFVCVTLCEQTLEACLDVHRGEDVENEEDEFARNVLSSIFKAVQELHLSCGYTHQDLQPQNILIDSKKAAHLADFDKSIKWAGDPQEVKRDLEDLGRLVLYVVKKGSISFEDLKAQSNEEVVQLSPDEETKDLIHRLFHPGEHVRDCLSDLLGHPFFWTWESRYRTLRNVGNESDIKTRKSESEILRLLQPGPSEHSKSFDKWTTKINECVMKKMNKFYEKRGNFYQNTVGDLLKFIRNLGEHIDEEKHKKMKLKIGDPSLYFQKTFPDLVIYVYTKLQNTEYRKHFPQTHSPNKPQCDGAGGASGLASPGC
UniProt Q9H871: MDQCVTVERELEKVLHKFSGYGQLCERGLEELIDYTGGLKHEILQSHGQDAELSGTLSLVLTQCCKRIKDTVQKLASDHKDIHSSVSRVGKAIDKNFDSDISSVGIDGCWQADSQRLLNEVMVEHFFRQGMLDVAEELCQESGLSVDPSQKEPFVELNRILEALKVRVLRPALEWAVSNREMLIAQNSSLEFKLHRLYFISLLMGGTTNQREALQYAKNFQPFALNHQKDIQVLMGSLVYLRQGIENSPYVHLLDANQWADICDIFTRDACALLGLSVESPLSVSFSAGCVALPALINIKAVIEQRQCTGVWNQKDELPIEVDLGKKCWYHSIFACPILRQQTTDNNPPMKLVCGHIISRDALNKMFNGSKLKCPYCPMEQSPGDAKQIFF
UniProt Q9BV68: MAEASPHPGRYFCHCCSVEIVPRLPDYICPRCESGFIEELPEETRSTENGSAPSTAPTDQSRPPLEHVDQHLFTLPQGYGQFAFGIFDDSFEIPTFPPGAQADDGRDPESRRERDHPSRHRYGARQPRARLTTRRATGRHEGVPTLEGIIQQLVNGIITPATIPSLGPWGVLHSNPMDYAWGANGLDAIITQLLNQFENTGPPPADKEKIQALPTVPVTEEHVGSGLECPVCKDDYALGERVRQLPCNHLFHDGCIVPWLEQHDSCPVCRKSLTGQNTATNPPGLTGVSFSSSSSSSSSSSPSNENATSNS
UniProt Q9BQY4: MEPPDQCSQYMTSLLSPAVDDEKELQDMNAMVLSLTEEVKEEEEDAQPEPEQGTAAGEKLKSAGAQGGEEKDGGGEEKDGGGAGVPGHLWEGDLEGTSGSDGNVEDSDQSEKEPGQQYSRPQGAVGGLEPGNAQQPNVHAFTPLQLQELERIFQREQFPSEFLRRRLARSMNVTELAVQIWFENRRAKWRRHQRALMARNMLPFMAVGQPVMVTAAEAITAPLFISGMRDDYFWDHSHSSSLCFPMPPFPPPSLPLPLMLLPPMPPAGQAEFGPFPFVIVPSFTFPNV
UniProt Q9H7B2: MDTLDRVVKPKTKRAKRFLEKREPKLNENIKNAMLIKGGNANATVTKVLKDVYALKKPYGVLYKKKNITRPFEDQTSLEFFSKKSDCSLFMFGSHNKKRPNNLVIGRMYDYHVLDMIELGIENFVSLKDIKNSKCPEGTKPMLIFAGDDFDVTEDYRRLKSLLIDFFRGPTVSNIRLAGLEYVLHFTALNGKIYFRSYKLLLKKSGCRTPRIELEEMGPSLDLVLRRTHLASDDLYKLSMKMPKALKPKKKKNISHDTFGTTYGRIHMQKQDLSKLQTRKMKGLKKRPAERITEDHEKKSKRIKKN
UniProt Q96EP0: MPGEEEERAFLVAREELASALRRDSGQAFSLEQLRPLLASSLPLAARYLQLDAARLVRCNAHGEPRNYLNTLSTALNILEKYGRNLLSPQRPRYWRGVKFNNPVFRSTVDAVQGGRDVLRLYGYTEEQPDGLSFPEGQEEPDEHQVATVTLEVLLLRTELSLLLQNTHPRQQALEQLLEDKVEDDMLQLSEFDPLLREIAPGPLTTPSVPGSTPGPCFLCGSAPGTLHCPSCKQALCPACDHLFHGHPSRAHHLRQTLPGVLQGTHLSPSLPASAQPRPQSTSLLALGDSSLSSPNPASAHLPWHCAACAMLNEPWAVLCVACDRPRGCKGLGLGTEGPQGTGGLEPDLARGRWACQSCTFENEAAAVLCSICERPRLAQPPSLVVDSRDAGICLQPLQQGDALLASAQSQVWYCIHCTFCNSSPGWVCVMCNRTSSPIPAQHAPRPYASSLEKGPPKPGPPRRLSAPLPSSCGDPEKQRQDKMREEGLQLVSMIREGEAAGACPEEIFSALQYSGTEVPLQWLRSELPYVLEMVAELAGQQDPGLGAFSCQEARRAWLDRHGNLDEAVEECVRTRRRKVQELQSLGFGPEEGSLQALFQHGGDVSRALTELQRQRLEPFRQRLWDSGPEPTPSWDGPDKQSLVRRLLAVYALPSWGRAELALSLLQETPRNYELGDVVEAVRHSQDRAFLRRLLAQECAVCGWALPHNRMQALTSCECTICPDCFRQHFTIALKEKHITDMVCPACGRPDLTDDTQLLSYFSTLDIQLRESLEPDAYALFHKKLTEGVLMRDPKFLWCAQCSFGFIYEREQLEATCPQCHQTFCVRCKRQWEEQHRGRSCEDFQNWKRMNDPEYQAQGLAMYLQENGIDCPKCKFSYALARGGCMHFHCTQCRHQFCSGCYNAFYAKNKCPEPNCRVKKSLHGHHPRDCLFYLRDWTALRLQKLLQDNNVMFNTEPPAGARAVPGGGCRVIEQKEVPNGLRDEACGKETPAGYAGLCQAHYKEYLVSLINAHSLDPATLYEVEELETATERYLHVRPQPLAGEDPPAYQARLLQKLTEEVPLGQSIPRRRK

Columns and labels:
Test in all cases: log2 fold change, soluble protein after heating vs DMSO (PISA); higher = thermal stabilisation; K562 lysate, 10 uM; active = over 0.2 and 3.5 SD of the protein, either way, in both replicates (recomputed)
nilotinib = compound: Cc1cn(-c2cc(NC(=O)c3ccc(C)c(Nc4nccc(-c5cccnc5)n4)c3)cc(C(F)(F)F)c2)cn1 [nilotinib]
Summary of the method: (§1)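 Following dounce homogenisation of K562 pellets in PBS pH 7.4 with 1 mM MgCl2, crude extract at 1 mg/mL protein was incubated for 30 min with 10 μM compound. Aliquots were then heated for 3 min over 48°C-58°C and pooled, NP-40 was added to 0.5% at 4°C, and soluble protein was recovered as the supernatant at 21,000xg for 90 min. Channel-sum-equalised TMTpro 16plex LC-MS/MS quantified this protein. Each value, from duplicates, is a log-two fold change in thermal stability relative to solvent controls.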

[1] = compound: Cc1nc(Nc2n[nH]c3c2CN(C(=O)N[C@H](CN(C)C)c2ccccc2)C3(C)C)c2sccc2n1
Summary of the method: as §1

dasatinib = compound: Cc1nc(Nc2ncc(C(=O)Nc3c(C)cccc3Cl)s2)cc(N2CCN(CCO)CC2)n1 [dasatinib]
Summary of the method: as §1

[2] = compound: Cc1ncc(-c2ccnc(Nc3ccc(S(C)(=O)=O)cc3)n2)n1C(C)C
Summary of the method: as §1

[3] = compound: Cn1cc(-c2ccc3c(c2)CCN3C(=O)Cc2cccc(C(F)(F)F)c2)c2c(N)ncnc21
Summary of the method: as §1

quisinostat = compound: Cn1cc(CNCC2CCN(c3ncc(C(=O)NO)cn3)CC2)c2ccccc21 [quisinostat]
Summary of the method: as §1

tipifarnib = compound: Cn1cncc1[C@@](N)(c1ccc(Cl)cc1)c1ccc2c(c1)c(-c1cccc(Cl)c1)cc(=O)n2C [tipifarnib]
Summary of the method: as §1

[4] = compound: NC(=O)Nc1cc(-c2cccc(F)c2)sc1C(=O)N[C@H]1CCCNC1
Summary of the method: as §1

[5] = compound: NC(=O)c1cnc(N[C@@H]2CCCC[C@@H]2N)nc1Nc1cccc(-n2nccn2)c1
Summary of the method: as §1

[6] = compound: NC1(c2ccc(-c3nc4ccn5c(=O)[nH]nc5c4cc3-c3ccccc3)cc2)CCC1
Summary of the method: as §1

Measured: log2 fold change

RPL26 (UniProt P61254)
inactive: nilotinib 0.038 | [1] 0.029 | dasatinib 0.03 | [2] 0.202 | [3] -0.062 | quisinostat 0.125 | tipifarnib -0.031 | [4] -0.037 | [5] 0.006 | [6] -0.147

RPL11 (UniProt P62913)
inactive: nilotinib -0.011 | [1] 0.021 | dasatinib 0.004 | [2] 0.026 | [3] -0.022 | quisinostat -0.105 | tipifarnib -0.02 | [4] 0.001 | [5] 0.027 | [6] -0.03

RING1 (UniProt Q06587)
inactive: nilotinib 0.033 | [1] -0.003 | dasatinib -0.004 | [2] 0.067 | [3] 0.009 | quisinostat 0.051 | tipifarnib -0.042 | [4] 0.006 | [5] -0.04 | [6] 0.027

RPL17 isoform 3 (UniProt P18621)
inactive: nilotinib 0.053 | [1] 0 | dasatinib 0.011 | [2] -0.035 | [3] -0.019 | quisinostat 0.032 | tipifarnib 0.01 | [4] 0 | [5] 0 | [6] 0.009

RIC1 (UniProt Q4ADV7)
inactive: nilotinib -0.069 | [1] 0.033 | dasatinib 0.001 | [2] 0.086 | [3] 0.008 | quisinostat -0.169 | tipifarnib 0.085 | [4] 0.097 | [5] -0.085 | [6] 0.002

RHOB (UniProt P62745)
inactive: nilotinib 0.076 | [1] -0.248 | dasatinib -0.03 | [2] -0.167 | [3] 0.09 | quisinostat 0.02 | tipifarnib -0.047 | [4] -0.027 | [5] 0.049 | [6] 0.036

RNASEH2A (UniProt O75792)
inactive: nilotinib 0.038 | [1] -0.03 | dasatinib -0.016 | [2] -0.027 | [3] 0.022 | quisinostat -0.002 | tipifarnib -0.03 | [4] -0.021 | [5] -0.001 | [6] -0.059

ROS1 (UniProt P08922)
inactive: nilotinib -0.166 | [1] 0.054 | dasatinib 0.083 | [2] 0.045 | [3] 0.08 | quisinostat -0.109 | tipifarnib 0.02 | [4] 0.086 | [5] -0.06

RPL22 (UniProt P35268)
inactive: nilotinib 0.01 | [1] -0.056 | dasatinib -0.011 | [2] 0.037 | [3] -0.027 | quisinostat 0.074 | tipifarnib 0.038 | [4] 0.008 | [5] -0.012 | [6] 0.028

RPE (UniProt Q96AT9)
inactive: nilotinib 0.112 | [1] -0.029 | dasatinib -0.013 | [2] 0.05 | [3] 0.012 | quisinostat 0.016 | tipifarnib -0.083 | [4] -0.036 | [5] -0.073 | [6] -0.017

RNF113A (UniProt O15541)
inactive: nilotinib 0.003 | [1] -0.004 | dasatinib -0.015 | [2] 0.007 | [3] 0.04 | quisinostat 0.063 | tipifarnib -0.019 | [4] -0.068 | [5] -0.005 | [6] -0.002

RPL35A (UniProt P18077)
inactive: nilotinib -0.01 | [1] 0.003 | dasatinib 0.045 | [2] -0.05 | [3] 0.041 | quisinostat 0.062 | tipifarnib -0.005 | [4] -0.026 | [5] -0.02 | [6] -0.02

RNASE4 (UniProt P34096)
inactive: nilotinib 0.166 | [1] 0.052 | dasatinib 0.097 | [2] 0.144 | [3] -0.038 | quisinostat 0.096 | tipifarnib -0.018 | [4] -0.019 | [5] 0.023 | [6] -0.044

RPAP3 (UniProt Q9H6T3)
inactive: nilotinib -0.011 | [1] 0.009 | dasatinib -0.023 | [2] 0.014 | [3] 0.009 | quisinostat -0.005 | tipifarnib 0 | [4] -0.004 | [5] 0.007 | [6] 0.019

RPL12 (UniProt P30050)
inactive: nilotinib 0.003 | [1] -0.046 | dasatinib 0.01 | [2] -0.042 | [3] -0.027 | quisinostat 0 | tipifarnib 0.01 | [4] -0.053 | [5] 0.009 | [6] 0.022

RNASEL (UniProt Q05823)
inactive: nilotinib -0.034 | [1] 0.035 | dasatinib -0.014 | [2] -0.013 | [3] 0.02 | quisinostat -0.06 | tipifarnib -0.016 | [4] 0.042 | [5] 0.026 | [6] -0.064

RNF146 (UniProt Q9NTX7)
inactive: nilotinib -0.016 | [1] 0.023 | dasatinib 0.07 | [2] 0.036 | [3] -0.014 | quisinostat 0.005 | tipifarnib 0.026 | [4] -0.013 | [5] -0.094 | [6] 0.068

RMND5A (UniProt Q9H871)
inactive: nilotinib -0.017 | [1] 0.015 | dasatinib 0.007 | [2] 0.002 | [3] -0.01 | quisinostat -0.095 | tipifarnib -0.01 | [4] 0 | [5] 0.006 | [6] 0.002

RICTOR isoform 3 (UniProt Q6R327)
inactive: nilotinib 0.04 | [1] 0.038 | dasatinib -0.048 | [2] -0.057 | [3] 0.034 | quisinostat -0.055 | tipifarnib -0.01 | [4] 0.027 | [5] 0.067 | [6] 0.148

RPL10 (UniProt P27635)
inactive: nilotinib 0.021 | [1] -0.033 | dasatinib 0.039 | [2] 0.012 | [3] -0.003 | quisinostat 0.037 | tipifarnib 0.032 | [4] -0.02 | [5] 0.008 | [6] 0.003

RPL26L1 (UniProt Q9UNX3)
inactive: nilotinib 0.051 | [1] -0.04 | dasatinib 0.027 | [2] 0.067 | [3] 0.015 | quisinostat 0.105 | tipifarnib 0.056 | [4] -0.008 | [5] -0.016 | [6] 0.02

RNH1 (UniProt P13489)
inactive: nilotinib 0.037 | [1] 0.05 | dasatinib 0.007 | [2] 0.058 | [3] -0.029 | quisinostat 0.024 | tipifarnib -0.034 | [4] -0.024 | [5] -0.014 | [6] 0.016

RNF126 (UniProt Q9BV68)
inactive: nilotinib 0.075 | [1] 0.087 | dasatinib -0.195 | [2] 0.004 | [3] -0.184 | quisinostat 0.133 | tipifarnib -0.121 | [4] -0.046 | [5] -0.04 | [6] -0.018

RNASEH2C (UniProt Q8TDP1)
inactive: nilotinib 0.006 | [1] -0.045 | dasatinib -0.034 | [2] -0.03 | [3] 0 | quisinostat -0.036 | tipifarnib -0.002 | [4] 0.005 | [5] 0.025 | [6] 0.027

RHOXF2 (UniProt Q9BQY4)
inactive: nilotinib -0.077 | [1] 0.057 | dasatinib 0.027 | [2] 0.043 | [3] -0.028 | quisinostat 0.033 | tipifarnib 0 | [4] 0.039 | [5] -0.014 | [6] -0.038

RPF2 (UniProt Q9H7B2)
inactive: nilotinib 0.05 | [1] -0.095 | dasatinib 0.01 | [2] -0.007 | [3] 0.001 | quisinostat 0.042 | tipifarnib 0.012 | [4] 0.045 | [5] -0.017 | [6] -0.064

RNPEPL1 (UniProt Q9HAU8)
inactive: nilotinib -0.108 | [1] -0.054 | dasatinib 0.023 | [2] 0.209 | [3] -0.03 | quisinostat 0.013 | tipifarnib 0.011 | [4] 0.047 | [5] 0.012 | [6] -0.058

Reprinted from the entries so far (6 entries):
RPL35A (UniProt P18077)
inactive: nilotinib -0.01 | [1] 0.003 | dasatinib 0.045 | [2] -0.05 | [3] 0.041 | quisinostat 0.062 | tipifarnib -0.005 | [4] -0.026 | [5] -0.02 | [6] -0.02

RNASE4 (UniProt P34096)
inactive: nilotinib 0.166 | [1] 0.052 | dasatinib 0.097 | [2] 0.144 | [3] -0.038 | quisinostat 0.096 | tipifarnib -0.018 | [4] -0.019 | [5] 0.023 | [6] -0.044

RPAP3 (UniProt Q9H6T3)
inactive: nilotinib -0.011 | [1] 0.009 | dasatinib -0.023 | [2] 0.014 | [3] 0.009 | quisinostat -0.005 | tipifarnib 0 | [4] -0.004 | [5] 0.007 | [6] 0.019

RPL12 (UniProt P30050)
inactive: nilotinib 0.003 | [1] -0.046 | dasatinib 0.01 | [2] -0.042 | [3] -0.027 | quisinostat 0 | tipifarnib 0.01 | [4] -0.053 | [5] 0.009 | [6] 0.022

RNASEL (UniProt Q05823)
inactive: nilotinib -0.034 | [1] 0.035 | dasatinib -0.014 | [2] -0.013 | [3] 0.02 | quisinostat -0.06 | tipifarnib -0.016 | [4] 0.042 | [5] 0.026 | [6] -0.064

RNF146 (UniProt Q9NTX7)
inactive: nilotinib -0.016 | [1] 0.023 | dasatinib 0.07 | [2] 0.036 | [3] -0.014 | quisinostat 0.005 | tipifarnib 0.026 | [4] -0.013 | [5] -0.094 | [6] 0.068

(next part)

RNF31 (UniProt Q96EP0)
inactive: nilotinib -0.069 | [1] 0.01 | dasatinib 0.031 | [2] -0.046 | [3] 0.024 | quisinostat 0.018 | tipifarnib 0.057 | [4] 0.018 | [5] 0.086 | [6] 0.006

RHOA (UniProt P61586)
inactive: nilotinib -0.08 | [1] 0.104 | dasatinib 0.017 | [2] -0.008 | [3] -0.013 | quisinostat 0.167 | tipifarnib -0.021 | [4] -0.004 | [5] 0.008 | [6] -0.062

RIPOR1 isoform 4 (UniProt Q6ZS17)
inactive: nilotinib -0.042 | [1] -0.019 | dasatinib -0.085 | [2] -0.189 | [3] 0.056 | quisinostat -0.046 | tipifarnib 0.018 | [4] 0.036 | [5] -0.019 | [6] -0.032
